This is one part of the list.
Tests used:
Assay in all cases: log2 fold change, soluble protein after heating vs DMSO (PISA); higher = thermal stabilisation; K562 cells, 10 uM, 30 min; active = over 0.2 and 3.5 SD of the protein, either way, in both replicates (recomputed)
[1] = compound: COC1=CC=C(C=C1)CN2C=CC3=C2C=C(C=C3)C(=O)NO
How it was run: (§1)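 K562 cells at 2×10^6 cells/mL were given 10 μM compound for 30 min. Aliquots then went through 3 min of heating across 48°C-58°C, were pooled, and were extracted in PBS with 0.5% NP-40 at 4°C, and the supernatant after 21,000xg for 90 min was quantified by TMTpro 16plex LC-MS/MS with channel sums equalised. Thermal stability relative to control samples, from duplicates, is given as log2 fold change.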

Chains of the proteins cited; added tags and fusions are not shown. Lines headed by an entry give the natural chain unless they say otherwise; changes in a name come on top.
UniProt Q6P1M0: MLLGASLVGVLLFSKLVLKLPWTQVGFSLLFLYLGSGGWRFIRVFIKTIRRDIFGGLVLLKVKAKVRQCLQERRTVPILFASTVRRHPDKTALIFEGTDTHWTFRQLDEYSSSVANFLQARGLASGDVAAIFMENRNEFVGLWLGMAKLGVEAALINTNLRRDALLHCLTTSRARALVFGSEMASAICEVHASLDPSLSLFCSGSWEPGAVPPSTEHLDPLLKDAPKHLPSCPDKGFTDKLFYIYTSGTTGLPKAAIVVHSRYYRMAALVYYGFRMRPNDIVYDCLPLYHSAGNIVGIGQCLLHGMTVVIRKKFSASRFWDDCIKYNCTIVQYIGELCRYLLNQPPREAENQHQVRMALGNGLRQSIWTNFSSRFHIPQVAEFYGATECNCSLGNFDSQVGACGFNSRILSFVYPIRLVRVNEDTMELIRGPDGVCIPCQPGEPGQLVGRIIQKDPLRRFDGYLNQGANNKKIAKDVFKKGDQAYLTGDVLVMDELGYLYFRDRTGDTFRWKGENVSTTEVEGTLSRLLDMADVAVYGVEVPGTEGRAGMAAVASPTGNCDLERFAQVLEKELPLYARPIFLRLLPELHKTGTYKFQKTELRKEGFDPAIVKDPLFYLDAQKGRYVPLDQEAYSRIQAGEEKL
UniProt Q13433: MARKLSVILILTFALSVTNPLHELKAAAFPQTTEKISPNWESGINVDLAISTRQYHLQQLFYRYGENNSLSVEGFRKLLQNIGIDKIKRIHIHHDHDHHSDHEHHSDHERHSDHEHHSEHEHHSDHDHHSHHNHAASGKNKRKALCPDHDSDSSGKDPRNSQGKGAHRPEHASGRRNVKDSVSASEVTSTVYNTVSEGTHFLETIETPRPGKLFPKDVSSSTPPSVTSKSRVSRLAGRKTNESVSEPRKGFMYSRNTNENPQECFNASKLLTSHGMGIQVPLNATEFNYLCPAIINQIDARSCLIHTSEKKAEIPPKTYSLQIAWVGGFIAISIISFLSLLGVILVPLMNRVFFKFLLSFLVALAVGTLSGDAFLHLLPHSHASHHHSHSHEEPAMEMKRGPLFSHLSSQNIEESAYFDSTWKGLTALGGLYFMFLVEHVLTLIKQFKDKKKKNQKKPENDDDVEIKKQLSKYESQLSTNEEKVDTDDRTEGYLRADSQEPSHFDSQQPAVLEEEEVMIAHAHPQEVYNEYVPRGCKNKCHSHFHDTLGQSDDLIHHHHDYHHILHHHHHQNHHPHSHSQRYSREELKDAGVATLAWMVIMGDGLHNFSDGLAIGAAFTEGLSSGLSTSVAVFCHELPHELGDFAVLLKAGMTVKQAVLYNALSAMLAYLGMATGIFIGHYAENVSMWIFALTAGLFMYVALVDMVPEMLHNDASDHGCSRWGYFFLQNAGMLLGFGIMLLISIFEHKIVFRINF
UniProt Q9BXP2: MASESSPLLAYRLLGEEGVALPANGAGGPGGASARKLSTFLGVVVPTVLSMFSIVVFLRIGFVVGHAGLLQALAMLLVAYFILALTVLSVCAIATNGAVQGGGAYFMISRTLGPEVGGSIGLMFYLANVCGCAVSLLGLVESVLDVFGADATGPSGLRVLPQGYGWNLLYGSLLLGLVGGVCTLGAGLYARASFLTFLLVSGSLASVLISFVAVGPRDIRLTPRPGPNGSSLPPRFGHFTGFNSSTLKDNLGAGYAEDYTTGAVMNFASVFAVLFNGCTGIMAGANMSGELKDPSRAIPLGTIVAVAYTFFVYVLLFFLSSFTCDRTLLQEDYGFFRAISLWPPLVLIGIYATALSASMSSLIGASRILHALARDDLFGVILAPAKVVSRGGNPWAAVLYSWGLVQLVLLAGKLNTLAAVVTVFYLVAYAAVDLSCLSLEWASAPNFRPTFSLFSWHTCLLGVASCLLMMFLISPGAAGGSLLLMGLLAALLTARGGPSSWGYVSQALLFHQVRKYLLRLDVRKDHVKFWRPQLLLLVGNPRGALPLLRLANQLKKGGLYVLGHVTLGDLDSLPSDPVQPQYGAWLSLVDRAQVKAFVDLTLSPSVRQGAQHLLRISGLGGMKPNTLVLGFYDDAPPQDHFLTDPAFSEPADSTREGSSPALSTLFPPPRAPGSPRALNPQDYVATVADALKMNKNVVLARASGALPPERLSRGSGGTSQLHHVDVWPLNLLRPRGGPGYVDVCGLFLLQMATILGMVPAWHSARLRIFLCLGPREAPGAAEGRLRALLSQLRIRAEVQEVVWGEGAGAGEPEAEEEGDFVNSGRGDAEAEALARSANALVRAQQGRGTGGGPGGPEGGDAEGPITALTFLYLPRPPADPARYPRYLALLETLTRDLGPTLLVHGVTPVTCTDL
UniProt Q00325: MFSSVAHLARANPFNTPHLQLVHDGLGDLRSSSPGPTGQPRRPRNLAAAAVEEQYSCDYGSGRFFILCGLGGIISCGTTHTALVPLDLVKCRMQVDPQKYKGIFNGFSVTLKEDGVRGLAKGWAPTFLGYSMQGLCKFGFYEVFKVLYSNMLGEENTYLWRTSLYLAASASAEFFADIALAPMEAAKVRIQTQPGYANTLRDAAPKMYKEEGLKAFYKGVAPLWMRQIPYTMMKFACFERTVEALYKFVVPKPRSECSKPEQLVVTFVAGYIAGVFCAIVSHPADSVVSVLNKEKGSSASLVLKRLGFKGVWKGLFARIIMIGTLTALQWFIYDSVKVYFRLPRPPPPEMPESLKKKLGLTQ
UniProt Q5BKX6: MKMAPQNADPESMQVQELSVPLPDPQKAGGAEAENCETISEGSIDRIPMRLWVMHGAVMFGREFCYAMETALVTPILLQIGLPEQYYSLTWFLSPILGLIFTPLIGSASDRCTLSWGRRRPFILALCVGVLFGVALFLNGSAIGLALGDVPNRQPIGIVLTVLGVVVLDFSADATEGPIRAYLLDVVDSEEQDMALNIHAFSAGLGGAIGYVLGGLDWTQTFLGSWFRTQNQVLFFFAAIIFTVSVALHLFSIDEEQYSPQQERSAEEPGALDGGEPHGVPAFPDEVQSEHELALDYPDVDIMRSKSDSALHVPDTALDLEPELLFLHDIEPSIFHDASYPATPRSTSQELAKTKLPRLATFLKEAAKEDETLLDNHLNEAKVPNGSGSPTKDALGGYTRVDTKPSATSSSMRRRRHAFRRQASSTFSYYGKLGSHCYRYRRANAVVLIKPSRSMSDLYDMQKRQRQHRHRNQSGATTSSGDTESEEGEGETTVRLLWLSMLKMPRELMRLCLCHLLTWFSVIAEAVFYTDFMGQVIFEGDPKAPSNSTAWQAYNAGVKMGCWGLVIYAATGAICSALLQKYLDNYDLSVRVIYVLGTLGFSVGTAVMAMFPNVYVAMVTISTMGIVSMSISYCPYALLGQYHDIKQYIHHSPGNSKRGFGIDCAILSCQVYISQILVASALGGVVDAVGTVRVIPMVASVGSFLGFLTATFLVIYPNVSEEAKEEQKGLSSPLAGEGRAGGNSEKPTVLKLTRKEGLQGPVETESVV
UniProt Q8WUM9: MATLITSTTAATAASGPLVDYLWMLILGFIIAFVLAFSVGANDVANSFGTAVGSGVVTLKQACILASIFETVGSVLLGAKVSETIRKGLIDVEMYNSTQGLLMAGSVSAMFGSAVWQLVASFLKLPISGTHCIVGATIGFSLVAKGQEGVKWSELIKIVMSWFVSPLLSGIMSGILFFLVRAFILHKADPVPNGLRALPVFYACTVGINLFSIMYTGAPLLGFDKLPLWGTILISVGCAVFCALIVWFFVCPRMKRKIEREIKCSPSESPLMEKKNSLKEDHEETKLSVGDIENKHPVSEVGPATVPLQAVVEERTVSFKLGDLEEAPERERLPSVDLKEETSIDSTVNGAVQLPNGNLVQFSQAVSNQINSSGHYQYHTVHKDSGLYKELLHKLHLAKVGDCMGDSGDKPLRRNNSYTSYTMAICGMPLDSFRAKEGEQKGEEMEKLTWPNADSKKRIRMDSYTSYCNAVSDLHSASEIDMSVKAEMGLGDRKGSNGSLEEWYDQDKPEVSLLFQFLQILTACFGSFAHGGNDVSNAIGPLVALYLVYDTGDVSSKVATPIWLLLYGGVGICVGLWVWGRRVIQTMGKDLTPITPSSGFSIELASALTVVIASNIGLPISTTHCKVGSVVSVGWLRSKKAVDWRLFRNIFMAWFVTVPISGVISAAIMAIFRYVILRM
UniProt Q9UHW9: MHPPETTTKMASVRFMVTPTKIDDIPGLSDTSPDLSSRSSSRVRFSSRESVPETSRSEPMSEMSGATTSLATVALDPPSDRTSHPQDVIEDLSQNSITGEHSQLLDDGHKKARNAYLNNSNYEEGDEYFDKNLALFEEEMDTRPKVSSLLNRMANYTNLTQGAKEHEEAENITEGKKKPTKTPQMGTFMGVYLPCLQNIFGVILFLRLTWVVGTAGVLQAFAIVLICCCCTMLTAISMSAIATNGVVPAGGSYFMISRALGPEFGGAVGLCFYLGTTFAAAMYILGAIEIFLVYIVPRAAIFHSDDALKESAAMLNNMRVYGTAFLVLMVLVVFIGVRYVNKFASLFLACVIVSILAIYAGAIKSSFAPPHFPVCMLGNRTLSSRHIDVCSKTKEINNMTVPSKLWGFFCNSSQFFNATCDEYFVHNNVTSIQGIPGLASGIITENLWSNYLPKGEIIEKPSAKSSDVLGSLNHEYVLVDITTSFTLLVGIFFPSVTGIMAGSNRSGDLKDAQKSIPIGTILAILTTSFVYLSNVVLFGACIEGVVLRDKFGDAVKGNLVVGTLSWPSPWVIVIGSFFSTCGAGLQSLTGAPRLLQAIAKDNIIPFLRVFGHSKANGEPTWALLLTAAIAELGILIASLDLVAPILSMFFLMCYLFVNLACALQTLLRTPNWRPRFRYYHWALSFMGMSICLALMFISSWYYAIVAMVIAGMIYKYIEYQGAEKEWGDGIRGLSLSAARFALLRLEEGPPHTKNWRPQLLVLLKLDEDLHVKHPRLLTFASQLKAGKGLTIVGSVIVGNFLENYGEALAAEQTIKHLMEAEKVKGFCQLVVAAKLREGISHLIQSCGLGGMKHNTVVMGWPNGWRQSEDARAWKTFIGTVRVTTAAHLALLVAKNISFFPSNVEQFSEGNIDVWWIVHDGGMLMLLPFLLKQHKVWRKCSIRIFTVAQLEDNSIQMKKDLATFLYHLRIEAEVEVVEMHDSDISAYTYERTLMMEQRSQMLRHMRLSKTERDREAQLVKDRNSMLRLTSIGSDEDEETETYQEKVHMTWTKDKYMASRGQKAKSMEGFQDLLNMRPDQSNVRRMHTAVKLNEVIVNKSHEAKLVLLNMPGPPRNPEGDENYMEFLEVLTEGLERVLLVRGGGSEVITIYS
UniProt Q8WV83: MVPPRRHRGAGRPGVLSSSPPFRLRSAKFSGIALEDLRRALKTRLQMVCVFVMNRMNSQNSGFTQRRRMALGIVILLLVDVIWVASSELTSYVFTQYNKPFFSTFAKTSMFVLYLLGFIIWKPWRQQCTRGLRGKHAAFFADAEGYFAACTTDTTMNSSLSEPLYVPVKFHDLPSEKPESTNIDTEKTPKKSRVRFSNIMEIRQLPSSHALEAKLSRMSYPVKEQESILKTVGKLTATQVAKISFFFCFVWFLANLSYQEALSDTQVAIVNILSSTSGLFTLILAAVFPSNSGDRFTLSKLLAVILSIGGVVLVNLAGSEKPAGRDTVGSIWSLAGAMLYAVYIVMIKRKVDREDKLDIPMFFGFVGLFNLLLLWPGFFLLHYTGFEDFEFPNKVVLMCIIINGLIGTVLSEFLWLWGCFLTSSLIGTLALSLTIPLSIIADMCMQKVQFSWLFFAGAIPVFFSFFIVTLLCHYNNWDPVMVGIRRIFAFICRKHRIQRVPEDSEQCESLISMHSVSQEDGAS
UniProt P11166: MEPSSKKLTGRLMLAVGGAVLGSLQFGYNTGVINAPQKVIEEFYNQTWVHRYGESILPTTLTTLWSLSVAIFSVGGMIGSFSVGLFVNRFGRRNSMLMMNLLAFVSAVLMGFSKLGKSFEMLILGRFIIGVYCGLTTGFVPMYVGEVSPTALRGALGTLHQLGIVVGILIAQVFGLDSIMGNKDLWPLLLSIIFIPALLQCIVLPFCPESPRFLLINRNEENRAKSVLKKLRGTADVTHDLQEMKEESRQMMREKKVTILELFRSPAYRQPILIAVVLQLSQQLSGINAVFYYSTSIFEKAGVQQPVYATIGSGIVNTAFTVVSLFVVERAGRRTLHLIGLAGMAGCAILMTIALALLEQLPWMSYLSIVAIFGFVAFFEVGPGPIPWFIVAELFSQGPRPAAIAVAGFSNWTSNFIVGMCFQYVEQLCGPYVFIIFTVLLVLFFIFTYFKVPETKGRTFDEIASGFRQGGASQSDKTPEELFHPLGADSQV
UniProt Q70HW3: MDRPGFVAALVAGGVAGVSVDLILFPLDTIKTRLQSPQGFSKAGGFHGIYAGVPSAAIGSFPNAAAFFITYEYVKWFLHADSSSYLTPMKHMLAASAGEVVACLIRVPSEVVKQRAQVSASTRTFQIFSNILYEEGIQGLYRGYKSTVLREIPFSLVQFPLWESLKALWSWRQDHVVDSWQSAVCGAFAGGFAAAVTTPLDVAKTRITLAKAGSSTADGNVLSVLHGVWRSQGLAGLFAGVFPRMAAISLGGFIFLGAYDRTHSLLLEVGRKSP

filanesib = compound: CON(C)C(=O)N1N=C(c2cc(F)ccc2F)S[C@@]1(CCCN)c1ccccc1 [filanesib]
How it was run: as §1

zotarolimus = compound: CO[C@H]1C[C@@H]2CC[C@@H](C)[C@@](O)(O2)C(=O)C(=O)N2CCCC[C@H]2C(=O)O[C@H]([C@H](C)C[C@@H]2CC[C@H](n3cnnn3)[C@H](OC)C2)CC(=O)[C@H](C)/C=C(\C)[C@@H](O)[C@@H](OC)C(=O)[C@H](C)C[C@H](C)/C=C/C=C/C=C/1C [zotarolimus]
How it was run: as §1

idasanutlin = compound: COc1cc(C(=O)O)ccc1NC(=O)[C@@H]1N[C@@H](CC(C)(C)C)[C@](C#N)(c2ccc(Cl)cc2F)[C@H]1c1cccc(Cl)c1F [idasanutlin]
How it was run: as §1

alisertib = compound: COc1cc(Nc2ncc3c(n2)-c2ccc(Cl)cc2C(c2c(F)cccc2OC)=NC3)ccc1C(=O)O [alisertib]
How it was run: as §1

[2] = compound: COc1cc2nc(-c3cc(F)ccc3O)nc(N[C@@H]3CNC[C@H]3C(C)(C)O)c2cc1OC
How it was run: as §1

gefitinib = compound: COc1cc2ncnc(Nc3ccc(F)c(Cl)c3)c2cc1OCCCN1CCOCC1 [gefitinib]
How it was run: as §1

[3] = compound: COc1cccc2cc(-c3nc([C@H]4CC[C@H](C(=O)O)CC4)n4ncnc(N)c34)[nH]c12
How it was run: as §1

lapatinib = compound: CS(=O)(=O)CCNCc1ccc(-c2ccc3ncnc(Nc4ccc(OCc5cccc(F)c5)c(Cl)c4)c3c2)o1 [lapatinib]
How it was run: as §1

pictilisib = compound: CS(=O)(=O)N1CCN(Cc2cc3nc(-c4cccc5[nH]ncc45)nc(N4CCOCC4)c3s2)CC1 [pictilisib]
How it was run: as §1

Measured: log2 fold change

SLC25A37 (UniProt Q9NYZ2)
inactive: [1] -0.093 | filanesib 0.009 | zotarolimus -0.012 | idasanutlin -0.021 | alisertib -0.127 | [2] -0.095 | gefitinib 0.048 | [3] 0.028 | lapatinib 0.039 | pictilisib -0.061

SLC25A19 (UniProt Q9HC21)
inactive: [1] -0.035 | filanesib 0.012 | zotarolimus -0.05 | idasanutlin -0.018 | alisertib -0.007 | [2] 0.033 | gefitinib 0 | [3] 0.065 | lapatinib -0.007 | pictilisib -0.081

SLC27A4 (UniProt Q6P1M0)
inactive: [1] 0.134 | filanesib 0.038 | zotarolimus 0.056 | idasanutlin -0.084 | alisertib -0.001 | [2] 0.032 | gefitinib 0.033 | [3] -0.022 | lapatinib 0.055 | pictilisib -0.078

SLC25A44 (UniProt Q96H78)
inactive: [1] -0.013 | filanesib 0.105 | zotarolimus -0.101 | idasanutlin 0.031 | alisertib -0.064 | [2] 0.031 | gefitinib -0.067 | [3] 0.125 | lapatinib -0.012 | pictilisib 0.007

SLC39A6 (UniProt Q13433)
inactive: [1] -0.098 | filanesib 0.127 | zotarolimus -0.049 | idasanutlin 0.1 | alisertib -0.088 | [2] 0.07 | gefitinib -0.001 | [3] 0.165 | lapatinib 0.021 | pictilisib 0.101

SLC7A5 (UniProt Q01650)
inactive: [1] 0.004 | filanesib -0.025 | zotarolimus -0.013 | idasanutlin 0.026 | alisertib 0.008 | [2] -0.1 | gefitinib -0.065 | [3] 0.068 | lapatinib 0.051 | pictilisib 0.067

SLC30A6 isoform 2 (UniProt Q6NXT4)
inactive: [1] -0.028 | filanesib -0.076 | zotarolimus -0.002 | idasanutlin 0.017 | alisertib 0.014 | [2] -0.017 | gefitinib 0.006 | [3] 0.049 | lapatinib -0.042 | pictilisib -0.091

SLC33A1 (UniProt O00400)
inactive: [1] 0.03 | filanesib -0.068 | zotarolimus 0.028 | idasanutlin -0.005 | alisertib 0.012 | [2] 0.01 | gefitinib 0 | [3] 0.002 | lapatinib 0.033 | pictilisib 0.054

SLC25A32 (UniProt Q9H2D1)
inactive: [1] -0.066 | filanesib -0.005 | zotarolimus -0.069 | idasanutlin -0.052 | alisertib -0.016 | [2] 0.026 | gefitinib 0.02 | [3] 0.088 | lapatinib -0.015 | pictilisib 0.018

SLC12A9 (UniProt Q9BXP2)
inactive: [1] -0.022 | filanesib -0.093 | zotarolimus 0.091 | idasanutlin 0.044 | alisertib -0.106 | [2] 0.049 | gefitinib -0.151 | [3] 0.023 | lapatinib 0.075 | pictilisib -0.121

SLC1A4 (UniProt P43007)
inactive: [1] -0.102 | filanesib -0.006 | zotarolimus -0.066 | idasanutlin 0.017 | alisertib -0.135 | [2] 0.06 | gefitinib 0.033 | [3] 0.098 | lapatinib 0.016 | pictilisib 0.128

SLC39A11 (UniProt Q8N1S5)
inactive: [1] -0.014 | filanesib -0.01 | zotarolimus -0.078 | idasanutlin -0.056 | alisertib -0.113 | [2] -0.04 | gefitinib 0.001 | [3] 0.047 | lapatinib -0.038 | pictilisib -0.117

SLC25A3 isoform 2 (UniProt Q00325)
inactive: [1] -0.051 | filanesib -0.026 | zotarolimus -0.01 | idasanutlin 0.011 | alisertib -0.038 | [2] -0.003 | gefitinib -0.003 | [3] 0.047 | lapatinib -0.034 | pictilisib -0.01

SLC45A4 isoform 3 (UniProt Q5BKX6)
inactive: [1] 0.218 | filanesib -0.173 | zotarolimus -0.138 | idasanutlin -0.028 | alisertib -0.107 | [2] 0.005 | gefitinib 0.014 | [3] -0.009 | lapatinib -0.006 | pictilisib -0.01

SLC20A1 (UniProt Q8WUM9)
inactive: [1] -0.065 | filanesib 0.022 | zotarolimus -0.048 | idasanutlin 0.075 | alisertib -0.103 | [2] 0.105 | gefitinib 0.029 | [3] 0.007 | lapatinib -0.082 | pictilisib 0.086

SLC12A6 isoform 2 (UniProt Q9UHW9)
inactive: [1] 0.127 | filanesib -0.052 | zotarolimus 0.002 | idasanutlin 0.02 | alisertib -0.042 | [2] -0.031 | gefitinib -0.047 | [3] 0.037 | lapatinib 0.035 | pictilisib -0.028

SLC20A2 (UniProt Q08357)
inactive: [1] -0.016 | filanesib 0.003 | zotarolimus -0.017 | idasanutlin -0.032 | alisertib 0.09 | [2] 0.027 | gefitinib 0.009 | [3] 0.079 | lapatinib -0.011 | pictilisib 0.135

SLC35A3 isoform 2 (UniProt Q9Y2D2)
inactive: [1] -0.028 | filanesib 0.029 | idasanutlin -0.036 | alisertib -0.055 | [2] 0.027 | gefitinib 0.023 | [3] 0.02 | lapatinib -0.166 | pictilisib 0.173

SLC35F5 (UniProt Q8WV83)
inactive: [1] -0.445 | filanesib 0.057 | [2] 0.154 | gefitinib -0.093 | lapatinib -0.292 | pictilisib 0.104

SLC2A1 (UniProt P11166)
inactive: [1] 0.002 | filanesib 0.006 | zotarolimus -0.011 | idasanutlin -0.006 | alisertib -0.104 | [2] 0.055 | gefitinib -0.026 | [3] 0.068 | lapatinib -0.019 | pictilisib 0.042

SLC12A5 (UniProt Q9H2X9)
inactive: [1] 0.323 | filanesib -0.071 | zotarolimus -0.076 | idasanutlin 0.017 | alisertib 0.299 | [2] -0.097 | [3] 0.124 | lapatinib 0.085

SLC35B3 (UniProt Q9H1N7)
inactive: [1] -0.042 | filanesib 0.012 | zotarolimus 0.127 | idasanutlin -0.059 | alisertib -0.25 | gefitinib -0.108 | [3] -0.159

SLC4A2 (UniProt P04920)
inactive: [1] -0.088 | filanesib -0.041 | zotarolimus 0 | idasanutlin -0.002 | alisertib -0.016 | [2] 0.051 | gefitinib -0.081 | [3] -0.003 | lapatinib -0.023 | pictilisib 0.128

SLC22A18 (UniProt Q96BI1)
inactive: [1] -0.036 | filanesib -0.114 | zotarolimus -0.05 | alisertib 0.022 | [2] -0.024 | gefitinib 0.047 | [3] 0.074 | lapatinib 0.014 | pictilisib 0.097

SLC48A1 (UniProt Q6P1K1)
inactive: [1] 0.093 | filanesib -0.074 | gefitinib 0.1

SLC25A26 (UniProt Q70HW3)
inactive: [1] 0.191 | filanesib -0.041 | zotarolimus 0.008 | idasanutlin -0.104 | alisertib 0.089 | gefitinib -0.085 | [3] 0.039 | pictilisib 0.032

SLC15A4 (UniProt Q8N697)
inactive: [1] 0.072 | zotarolimus 0.085 | idasanutlin -0.068 | alisertib 0.028 | [2] 0.052 | gefitinib -0.002 | [3] -0.056 | lapatinib -0.006
